Results are given in words; binding and its absence hold for the method and conditions named. Binding seen in cells or lysates may run through a third protein. Some binding calls cover weakened binding; strength is not graded here.

Chains of the proteins cited; added tags and fusions are not shown.
UniProt P61809: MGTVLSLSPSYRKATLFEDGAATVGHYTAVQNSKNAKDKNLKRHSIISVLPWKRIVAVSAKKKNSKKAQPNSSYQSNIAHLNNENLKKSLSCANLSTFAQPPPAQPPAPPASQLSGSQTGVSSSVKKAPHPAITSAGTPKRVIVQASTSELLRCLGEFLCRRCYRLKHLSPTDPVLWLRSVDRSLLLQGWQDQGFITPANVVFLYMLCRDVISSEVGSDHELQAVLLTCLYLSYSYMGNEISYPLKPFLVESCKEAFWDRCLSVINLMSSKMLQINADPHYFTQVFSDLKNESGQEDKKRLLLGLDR
UniProt Q9QYB1: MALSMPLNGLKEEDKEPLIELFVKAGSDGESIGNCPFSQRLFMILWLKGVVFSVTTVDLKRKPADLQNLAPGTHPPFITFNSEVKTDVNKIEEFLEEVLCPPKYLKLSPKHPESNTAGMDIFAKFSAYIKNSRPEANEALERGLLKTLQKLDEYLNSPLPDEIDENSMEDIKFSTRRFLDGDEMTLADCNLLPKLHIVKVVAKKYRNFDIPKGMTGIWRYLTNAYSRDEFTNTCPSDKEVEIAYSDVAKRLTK

Assay [1] concerns the target Cyclin-dependent kinase 5 (CDK5), endogenous in mouse brain (mouse (endogenous in brain)) (UniProt P49615). Put plainly: co-IP; brain homogenates of wild-type C57BL/6 mice in TNEN buffer; anti-CLIC4, anti-CDK5 or anti-p35 antibody overnight at 4 °C, Protein G Dynabeads 2 h at 4 °C; endogenous proteins, immunoblot.
For assay [2], the target named is p35 (CDK5 activator), endogenous in mouse brain (mouse (endogenous in brain)) (UniProt P61809). The description is as above.
The target in assay [3] is GST-CLIC4 (glutathione S-transferase attached chloride intracellular channel 4) (UniProt Q9QYB1). Kind of assay: pull-down; GST or GST-CLIC4 transiently transfected in N2a cells, precipitated from lysates with Glutathione Sepharose for 2 h at 4 °C, washed with TNEN buffer (50 mM Tris-HCl 8.0, 150 mM NaCl, 5 mM EDTA, 1% NP-40); endogenous proteins detected by immunoblot.
For assay [4], the target named is GST-CDK5 (UniProt P49615). Put plainly: pull-down; GST-CDK5 and HA-CLIC4 co-expressed in N2a cells, precipitated from lysates with Glutathione Sepharose for 2 h at 4 °C, washed with TNEN buffer; immunoblot.
Assay [5] addresses VC155-CLIC4 (UniProt Q9QYB1). Put plainly: split reporter; BiFC: VN173-CDK5 and VC155-CLIC4 co-expressed in N2a cells; reconstituted Venus-type GFP fluorescence seen by microscopy.

As to “Chloride intracellular channel 4 (CLIC4), endogenous in mouse brain (from UniProt Q9QYB1 1-253)”, the binding entry in assay [1] and in assay [2] was “binds” each time.
Consider “Cyclin-dependent kinase 5 (CDK5), endogenous in N2a cells (from UniProt P49615 1-292) (enzyme)”, for which the binding entry in assay [3] is “binds”.
As for HA-CLIC4 (from UniProt Q9QYB1 1-253), in assay [4], the binding result was “binds”.
As to “VN173-CDK5 (from UniProt P49615 1-292) (enzyme)”, the binding entry in assay [5] is listed as “binds”.
For “p35 (CDK5 activator), endogenous in N2a cells (from UniProt P61809 1-307)”, in assay [3], the binding entry was “binds”.

The record behind these values is paper PMC6147799.
